Tested on: C-26 tumor-bearing mice
Assay: C-26 colon adenocarcinoma model of cancer cachexia (body, muscle and tissue weights, tumor growth, food intake)
Assay type: in vivo, CD2F1 mice
Protocol: In one aspect, tumors were established by subcutaneous injection of C-26 cells (0.5×10^6 cells in 0.1 ml) into the right flank of male CD2F1 mice (approximately 6 weeks of age; Harlan Laboratories, Indianapolis, Ind.)(11). Tumor-bearing mice, as well as tumor-free mice serving as non-cachectic controls, were randomized into groups that were treated with either AR-42 (50 mg/kg, p.o. by gavage, every other day; Arno Therapeutics, Inc., Flemington, N.J.) or vehicle (0.5% methylcellulose (w/v) and 0.1% Tween-80 (v/v) in sterile water) starting 6 days after cell injection. […]
In another aspect, subcutaneous tumors were established in male C57BL/6 mice (approximately 6 weeks of age; Harlan) by injection of 0.5×10^6 LLC cells into the right flank. […] In both models, body weights and food consumption were monitored daily and tumor size was measured no less than every two days. Mice were fasted for 2 hours prior to sacrifice, at which time, hind limb muscles, heart, spleen, epididymal fat, and blood were collected and the weights of the solid tissues were measured. […]
CD2F1 and C57BL/6 mice were group-housed under conditions of constant photoperiod (12-hour light/12-hour dark), temperature and humidity with ad libitum access to water and standard diet. […] Tumor volumes were calculated from caliper measurements using a standard formula (length×width^2×π/6).

CC(C)[C@H](C(=O)Nc1ccc(C(=O)NO)cc1)c1ccccc1 [AR-42, (S)—N-hydroxy-4-(3-methyl-2-phenylbutanamido)benzamide]
average daily food consumption versus vehicle-treated group (C-26 tumor-bearing mice, 15-day study): comparable
reduction of adipose tissue mass in tumor-free mice (tumor-free mice, 50 mg/kg p.o. every other day): approximately 50%

From US11219607B2, “Methods for suppressing cancer-related cachexia” (Ohio State Innovation Foundation, priority 2013, dated 2022)
